Measured values from patent US7405041B2, “Methods for regulating transcription by targeting quadruplex DNA” (Arizona Board of Regents on behalf of the University of …, priority 2002, dated 2008).
At least one compound was matched to its structure with a doubt left.

Columns and labels:
[1] = test system: HER-2/neu quadruplex; experiment: DNA polymerase arrest assay, HER-2/neu promoter template; type: biochemical; details: in the presence of potassium; for interaction with and stabilization of the HER-2/neu quadruplex: temperature gradient of 37° C. to 57° C.
From the text: A polymerase arrest assay is useful for determining whether transcription is modulated by a candidate molecule and/or a nucleic acid binding protein. Such an assay includes a template nucleic acid, which often comprises a quadruplex forming sequence, and a primer nucleic acid which hybridizes to the template nucleic acid […] of the quadruplex-forming sequence. The primer is extended by a polymerase (e.g., Taq polymerase), which advances from the primer along the template nucleic acid. In this assay, a quadruplex structure can block or arrest the advance of the enzyme, leading to shorter transcription fragments. Also, the arrest assay may be conducted at a variety of temperatures, including 45° C. and 60° C., and at a variety of ion concentrations. An example of the Taq polymerase stop assay is described in Han, et al., Nucl. Acids Res. 27:537-542 (1999), which is a modification of that used by Weitzmann, et al., J. Biol. Chem. 271, 20958-20964 (1996). Briefly, a reaction mixture of template DNA (50 nM), Tris∘HCl (50 mM), MgCl2 (10 mM), DTT (0.5 mM), EDTA (0.1 mM), BSA (60 ng), and 5′-end-labeled quadruplex nucleic acid (˜18 nM) is heated to 90° C. for 5 minutes and allowed to cool to ambient temperature over 30 minutes. Taq Polymerase (1 μl) is added to the reaction mixture, and the reaction is maintained at a constant temperature for 30 minutes. Following the addition of 10 μl stop buffer (formamide (20 ml), 1 M NaOH (200 μl), 0.5 M EDTA (400 μl), and 10 mg bromophenol blue), the reactions are separated on a preparative gel (12%) and visualized on a phosphorimager. Adenine sequencing (indicated by “A” at the top of the gel) is performed using double-stranded DNA Cycle Sequencing System from Life Technologies. The general sequence for the template strands is TCCAACTATGTATAC-INSERT-[…] (SEQ ID NOS:27-28).
In the DNA polymerase arrest assay, the purine rich strand of the HER-2/neu promoter was placed into an 86 nucleotide DNA template for primer extension by taq DNA polymerase. An example of the Taq polymerase stop assay used in the study is described in Han et al., Nuci. […]

[2] = test system: c-MYB nucleic acid (heptad:tetrad quadruplex); experiment: DNA polymerase arrest assay, c-MYB nucleic acid; type: biochemical; details: temperature gradient of 37° C. to 57° C., in the presence of potassium
From the text: A polymerase arrest assay is useful for determining whether transcription is modulated by a candidate molecule and/or a nucleic acid binding protein. Such an assay includes a template nucleic acid, which often comprises a quadruplex forming sequence, and a primer nucleic acid which hybridizes to the template nucleic acid […] of the quadruplex-forming sequence. The primer is extended by a polymerase (e.g., Taq polymerase), which advances from the primer along the template nucleic acid. In this assay, a quadruplex structure can block or arrest the advance of the enzyme, leading to shorter transcription fragments. Also, the arrest assay may be conducted at a variety of temperatures, including 45° C. and 60° C., and at a variety of ion concentrations. An example of the Taq polymerase stop assay is described in Han, et al., Nucl. Acids Res. 27:537-542 (1999), which is a modification of that used by Weitzmann, et al., J. Biol. Chem. 271, 20958-20964 (1996). Briefly, a reaction mixture of template DNA (50 nM), Tris∘HCl (50 mM), MgCl2 (10 mM), DTT (0.5 mM), EDTA (0.1 mM), BSA (60 ng), and 5′-end-labeled quadruplex nucleic acid (˜18 nM) is heated to 90° C. for 5 minutes and allowed to cool to ambient temperature over 30 minutes. Taq Polymerase (1 μl) is added to the reaction mixture, and the reaction is maintained at a constant temperature for 30 minutes. […]

| Structure (SMILES) | interaction with and stabilization of the HER-2/neu quadruplex [1] | interaction with and stabilization of the c-MYB nucleic acid [2] | amount of DNA polymerase arrest relative to the no drug control ([1]; highest temperature (57° C.)) |
| --- | --- | --- | --- |
| Cc1oc2nc1-c1nc(co1)-c1nc(co1)-c1nc(co1)-c1nc(co1)-c1nc(co1)C1=NC(CS1)c1nc-2c(C)o1 (centres unmarked) [telomestatin] | interacted with and stabilized the HER-2/neu quadruplex with higher affinity than coralyne | interacted with and stabilized the c-MYB nucleic acid | – |
| COc1cc2cc3c4cc(OC)c(OC)cc4cc[n+]3c(C)c2cc1OC [coralyne] | interacted with and stabilized the quadruplex structure | interacted with and stabilized the c-MYB nucleic acid | slight increase in the amount of DNA polymerase arrest |
